Experimental data taken from publication PMC7806468.
Results are given in words; binding and its absence hold for the method and conditions named. In cells and extracts the contact can be indirect. Some binding calls cover weakened binding; strength is not graded here. For some of these results: Sequences can lack the tags named with a protein.

The chains behind the UniProt entries cited, without tags or fusion partners.
UniProt P35222: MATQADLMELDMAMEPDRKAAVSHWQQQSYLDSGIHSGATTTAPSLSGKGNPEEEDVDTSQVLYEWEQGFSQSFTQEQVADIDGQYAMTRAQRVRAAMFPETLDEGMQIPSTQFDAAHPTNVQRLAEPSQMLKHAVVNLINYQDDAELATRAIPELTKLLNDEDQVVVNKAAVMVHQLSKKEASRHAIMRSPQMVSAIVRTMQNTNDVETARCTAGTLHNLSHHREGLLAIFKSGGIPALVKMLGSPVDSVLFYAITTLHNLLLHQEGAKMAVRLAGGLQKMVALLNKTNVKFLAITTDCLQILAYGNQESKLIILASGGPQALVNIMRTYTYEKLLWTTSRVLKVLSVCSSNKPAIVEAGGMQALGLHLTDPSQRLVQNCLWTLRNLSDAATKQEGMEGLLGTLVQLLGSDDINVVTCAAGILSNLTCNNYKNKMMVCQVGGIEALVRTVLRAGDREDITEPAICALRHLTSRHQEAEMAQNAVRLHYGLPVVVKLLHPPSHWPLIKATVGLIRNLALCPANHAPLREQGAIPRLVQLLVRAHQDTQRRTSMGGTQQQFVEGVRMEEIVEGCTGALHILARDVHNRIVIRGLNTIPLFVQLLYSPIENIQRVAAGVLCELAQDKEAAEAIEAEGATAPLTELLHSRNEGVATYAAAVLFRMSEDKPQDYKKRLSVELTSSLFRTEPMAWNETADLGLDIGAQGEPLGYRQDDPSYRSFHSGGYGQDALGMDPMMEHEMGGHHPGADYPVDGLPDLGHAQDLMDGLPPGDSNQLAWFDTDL

Experiments:
[1] = target: T1, GST-tagged SHMT2α (GST-SHMT2α) (human) (UniProt P34897); experiment: pull-down; GST-SHMT2α on beads added to HCT116 cell lysates, overnight at 4 °C, washed twice with PBST, immunoblot; only the target purified
T1 sequence: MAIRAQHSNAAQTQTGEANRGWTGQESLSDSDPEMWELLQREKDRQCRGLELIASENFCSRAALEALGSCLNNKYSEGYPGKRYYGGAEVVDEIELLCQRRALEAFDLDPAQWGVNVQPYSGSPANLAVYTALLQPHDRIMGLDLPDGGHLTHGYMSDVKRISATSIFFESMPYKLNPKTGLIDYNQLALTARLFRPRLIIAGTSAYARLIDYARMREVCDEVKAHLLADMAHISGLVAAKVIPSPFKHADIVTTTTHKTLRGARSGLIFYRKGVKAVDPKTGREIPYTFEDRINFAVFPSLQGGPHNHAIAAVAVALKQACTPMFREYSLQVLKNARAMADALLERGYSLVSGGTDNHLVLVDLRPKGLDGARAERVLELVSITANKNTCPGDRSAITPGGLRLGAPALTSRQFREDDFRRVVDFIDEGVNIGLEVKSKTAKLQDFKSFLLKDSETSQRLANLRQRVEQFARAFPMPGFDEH

[2] = target: T2, Serine hydroxymethyltransferase 2 (SHMT2), endogenous (human (endogenous in HCT116 and DLD-1)) (UniProt P34897); experiment: co-IP; endogenous proteins; cytoplasmic and nuclear protein separated from HCT116 and DLD-1 cells and immunoprecipitated with the indicated antibodies
T2 sequence: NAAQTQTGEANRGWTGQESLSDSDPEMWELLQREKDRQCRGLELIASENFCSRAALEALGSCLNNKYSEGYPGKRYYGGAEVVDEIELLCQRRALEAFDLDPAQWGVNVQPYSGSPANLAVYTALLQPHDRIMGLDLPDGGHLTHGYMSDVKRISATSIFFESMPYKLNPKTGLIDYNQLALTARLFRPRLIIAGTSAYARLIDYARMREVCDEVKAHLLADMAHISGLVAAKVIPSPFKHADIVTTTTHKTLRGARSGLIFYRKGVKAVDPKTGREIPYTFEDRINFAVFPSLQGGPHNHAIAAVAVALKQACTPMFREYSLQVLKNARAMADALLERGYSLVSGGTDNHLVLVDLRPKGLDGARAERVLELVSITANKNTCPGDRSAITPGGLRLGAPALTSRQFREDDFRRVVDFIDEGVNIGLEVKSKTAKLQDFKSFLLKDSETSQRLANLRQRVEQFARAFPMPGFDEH

[3] = target: T3, Flag-tagged SHMT2α (shRNA-resistant) (human) (UniProt P34897); experiment: co-IP; stable SHMT2-knockdown HCT116 and DLD-1 cells re-expressing shRNA-resistant Flag-SHMT2α or K64R; immunoprecipitation with the indicated antibodies
T3 sequence: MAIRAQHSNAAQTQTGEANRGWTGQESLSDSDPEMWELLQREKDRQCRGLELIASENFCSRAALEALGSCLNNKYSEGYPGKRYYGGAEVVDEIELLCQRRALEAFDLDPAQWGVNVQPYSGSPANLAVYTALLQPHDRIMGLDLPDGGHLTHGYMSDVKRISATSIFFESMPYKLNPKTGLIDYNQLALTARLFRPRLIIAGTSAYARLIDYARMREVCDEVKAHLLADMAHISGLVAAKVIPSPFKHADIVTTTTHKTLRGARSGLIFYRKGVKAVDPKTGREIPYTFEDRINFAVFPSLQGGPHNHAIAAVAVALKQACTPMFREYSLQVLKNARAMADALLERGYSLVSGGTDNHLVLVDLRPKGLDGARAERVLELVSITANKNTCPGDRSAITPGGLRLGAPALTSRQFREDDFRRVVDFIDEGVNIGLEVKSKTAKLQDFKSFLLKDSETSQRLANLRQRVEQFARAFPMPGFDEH

[4] = target: β-catenin (human (endogenous in HCT116 and DLD-1)) (UniProt P35222); experiment: pull-down; competition: excess and equal amounts of untagged SHMT2α or ΔSHMT2 added to HCT116 cell lysates before beads with GST-SHMT2α, overnight at 4 °C, immunoblot of β-catenin; only the binder purified

**Q.** How did the binding [1] turn out when β-catenin (from UniProt P35222 1-781) was run?
**A.** binds

**Q.** And the binding [2]?
**A.** binds

**Q.** And the binding [3]?
**A.** binds

B1: SHMT2α (GST tag cleaved by TEV protease) (enzyme, UniProt P34897 22-504)
chain: MAIRAQHSNAAQTQTGEANRGWTGQESLSDSDPEMWELLQREKDRQCRGLELIASENFCSRAALEALGSCLNNKYSEGYPGKRYYGGAEVVDEIELLCQRRALEAFDLDPAQWGVNVQPYSGSPANLAVYTALLQPHDRIMGLDLPDGGHLTHGYMSDVKRISATSIFFESMPYKLNPKTGLIDYNQLALTARLFRPRLIIAGTSAYARLIDYARMREVCDEVKAHLLADMAHISGLVAAKVIPSPFKHADIVTTTTHKTLRGARSGLIFYRKGVKAVDPKTGREIPYTFEDRINFAVFPSLQGGPHNHAIAAVAVALKQACTPMFREYSLQVLKNARAMADALLERGYSLVSGGTDNHLVLVDLRPKGLDGARAERVLELVSITANKNTCPGDRSAITPGGLRLGAPALTSRQFREDDFRRVVDFIDEGVNIGLEVKSKTAKLQDFKSFLLKDSETSQRLANLRQRVEQFARAFPMPGFDEH
**Q.** For B1, which binding [4] is on record?
**A.** binds
